Data taken from the supplement of paper PMC4604168 (melanoma cell lines).
The other results are listed elsewhere or left out. Single values are uncertain, as repeats are few or missing.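 Imaging used 1,536-well plates; nuclei positive for cleaved PARP by antibody were divided by total DNA-stained nuclei to yield the apoptosis fraction. Doses for screening kept most cells viable, and cell lines differ markedly in resting and induced cleaved-PARP levels.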

test system: UACC257; experiment: cleaved PARP positive nuclei fraction relative to DMSO control; melanoma cells; higher = more apoptosis; conditions: library dose: low library concentration; 72 h

Row | Structure (SMILES) | cleaved PARP positive nuclei fraction
1 | O=C(Nc1cccc(Cl)c1)Nc1ncc(CCNc2ncnc3ccsc23)s1 + COc1ccc(COc2ccc(Cc3cnc(N)nc3N)cc2OC)cc1 [GW2580] (first compound 0.0008 µM, partner dose 1 µM) | 110%
2 | Cc1nc(Nc2ncc(C(=O)Nc3c(C)cccc3Cl)s2)cc(N2CCN(CCO)CC2)n1 [dasatanib] + O=C1NC(=O)/C(=C/c2ccc(-c3ccc(F)cc3O)o2)S1 [AS252424] (first compound 0.004 µM, partner dose 1 µM) | 151%
3 | C[C@]1(c2nc3c(C(N)=O)cccc3[nH]2)CCCN1 [Veliparib] + Cc1cc([N+](=O)[O-])ccc1NS(=O)(=O)c1cc(Cl)ccc1Cl [FH535] (first compound 1.4 µM, partner dose 1 µM) | 97.8%
4 | C[C@@H]1CCN(C(=O)CC#N)C[C@@H]1N(C)c1ncnc2[nH]ccc12 + COc1cc2ncnc(Nc3ccc(Oc4ccccc4)cc3)c2cc1OC [SrcI1] (first compound 1 µM, partner dose 2 µM) | 75.1%
5 | CC1(C)NC(=O)N(c2ccc([N+](=O)[O-])c(C(F)(F)F)c2)C1=O [nilutamide] + c1cc(-c2cnn3cc(-c4ccc(OCCN5CCCCC5)cc4)cnc23)ccn1 [Dorsomorphin] (first compound 1 µM, partner dose 0.4 µM) | 77.2%
6 | C[C@@H]1CCN(C(=O)CC#N)C[C@@H]1N(C)c1ncnc2[nH]ccc12 + c1cc(-c2cnn3cc(-c4ccc(OCCN5CCCCC5)cc4)cnc23)ccn1 [Dorsomorphin] (first compound 1 µM, partner dose 0.4 µM) | 142%
7 | NC(=O)Nc1cc(-c2cccc(F)c2)sc1C(=O)N[C@H]1CCCNC1 + O=S(=O)(c1ccccc1)N(CC(F)(F)F)c1ccc(C(O)(C(F)(F)F)C(F)(F)F)cc1 [T0901317] (first compound 0.02 µM, partner dose 1.4 µM) | 77.6%
8 | O=C(Nc1cccc(Cl)c1)Nc1ncc(CCNc2ncnc3ccsc23)s1 + COc1cc(N2CCC(N3CCN(C)CC3)CC2)ccc1Nc1ncc(Cl)c(Nc2ccccc2S(=O)(=O)C(C)C)n1 [NVP-TAE684] (first compound 0.0008 µM, partner dose 0.08 µM) | 94.2%
9 | C[C@]1(c2nc3c(C(N)=O)cccc3[nH]2)CCCN1 [Veliparib] + O=S(=O)(c1ccccc1)N(CC(F)(F)F)c1ccc(C(O)(C(F)(F)F)C(F)(F)F)cc1 [T0901317] (first compound 1.4 µM, partner dose 1.4 µM) | 196%
10 | Cc1nc(Nc2ncc(C(=O)Nc3c(C)cccc3Cl)s2)cc(N2CCN(CCO)CC2)n1 [dasatanib] + CCc1ccc(CCOc2ccc(CC3SC(=O)NC3=O)cc2)nc1 [pioglitazone] (first compound 0.004 µM, partner dose 2 µM) | 137%
11 | CC1(C)NC(=O)N(c2ccc([N+](=O)[O-])c(C(F)(F)F)c2)C1=O [nilutamide] + O=c1cc(-c2cccc3c2Sc2ccccc2S3)oc(N2CCOCC2)c1 [KU55933] (first compound 1 µM, partner dose 1 µM) | 59.2%
12 | COc1cc(Nc2ncc(F)c(Nc3ccc4c(n3)NC(=O)C(C)(C)O4)n2)cc(OC)c1OC [Tamatinib] + Oc1nc(-c2ccc(C(F)(F)F)cc2)nc2c1CSCC2 [XAV939] (first compound 0.4 µM, partner dose 2 µM) | 114%
13 | O=C(CCCCCCC(=O)Nc1ccccc1)NO [vorinostat] + O=C(O)C(=O)Nc1sc2c(c1C(=O)O)CCNC2 [TCS401] (first compound 0.08 µM, partner dose 1.66667 µM) | 260%

test system: UACC62; experiment: as above; conditions: library dose: low library concentration; 72 h

Row | Structure (SMILES) | cleaved PARP positive nuclei fraction
14 | O=C(CCCCCCC(=O)Nc1ccccc1)NO [vorinostat] + COc1ccc2c(c1)CCC1C2CCC2(C)C(NCCCCCCN3C(=O)C=CC3=O)CCC12 [U73122] (first compound 0.08 µM, partner dose 0.4 µM) | 182%
15 | Cn1nnc2c(C(N)=O)ncn2c1=O [temozolomide] + COc1ccc(COc2ccc(Cc3cnc(N)nc3N)cc2OC)cc1 [GW2580] (first compound 2 µM, partner dose 1 µM) | 90%
16 | OCCn1cc(-c2cnc3nnn(Cc4ccc5ncccc5c4)c3n2)cn1 + COc1ccc(-c2ccc3c(N4CCOCC4)nc(N4C[C@@H](C)O[C@@H](C)C4)nc3n2)cc1CO [KU0063794] (first compound 1 µM, partner dose 0.02 µM) | 55.2%
17 | Cc1ccc(NC(=O)c2cccc(N(C)C)c2)cc1NC(=O)c1ccc(O)cc1 + Cn1cc(/C=C2\C(=O)Nc3cccnc32)c2ccccc21 [GW441756] (first compound 2 µM, partner dose 0.4 µM) | 71.9%
18 | Cc1ccc(NC(=O)c2cccc(N(C)C)c2)cc1NC(=O)c1ccc(O)cc1 + CCCCCCCCCCCC1=C(O)C(=O)C=C(O)C1=O [Embelin] (first compound 2 µM, partner dose 1.2 µM) | 38.9%
19 | Cn1cncc1[C@@](N)(c1ccc(Cl)cc1)c1ccc2c(c1)c(-c1cccc(Cl)c1)cc(=O)n2C [tipifarnib] + Cc1cc([N+](=O)[O-])ccc1NS(=O)(=O)c1cc(Cl)ccc1Cl [FH535] (first compound 0.01 µM, partner dose 1 µM) | 149%
20 | Cn1c(Nc2ccc(C(F)(F)F)cc2)nc2cc(Oc3ccnc(-c4ncc(C(F)(F)F)[nH]4)c3)ccc21 + COc1ccc2c(c1)CCC1C2CCC2(C)C(NCCCCCCN3C(=O)C=CC3=O)CCC12 [U73122] (first compound 0.08 µM, partner dose 0.4 µM) | 137%
21 | Cn1cncc1[C@@](N)(c1ccc(Cl)cc1)c1ccc2c(c1)c(-c1cccc(Cl)c1)cc(=O)n2C [tipifarnib] + Oc1cc(-c2nc(-c3ccccc3)[nH]c2-c2ccncc2)ccc1Cl [L779450] (first compound 0.01 µM, partner dose 0.2 µM) | 134%
22 | OCCn1cc(-c2cnc3nnn(Cc4ccc5ncccc5c4)c3n2)cn1 + O=C(O)C(=O)Nc1sc2c(c1C(=O)O)CCNC2 [TCS401] (first compound 1 µM, partner dose 1.66667 µM) | 40.2%
23 | C=CCn1c(=O)c2cnc(Nc3ccc(N4CCN(C)CC4)cc3)nc2n1-c1cccc(C(C)(C)O)n1 + Oc1nc(-c2ccc(C(F)(F)F)cc2)nc2c1CSCC2 [XAV939] (first compound 0.02 µM, partner dose 2 µM) | 96.5%
24 | Nc1cccc2c1CN(C1CCC(=O)NC1=O)C2=O (centres undefined) [lenalidomide] + CCCCCCCCCCCC1=C(O)C(=O)C=C(O)C1=O [Embelin] (first compound 1 µM, partner dose 1.2 µM) | 93.2%
25 | C[C@@H]1CCN(C(=O)CC#N)C[C@@H]1N(C)c1ncnc2[nH]ccc12 + Oc1cc(-c2nc(-c3ccccc3)[nH]c2-c2ccncc2)ccc1Cl [L779450] (first compound 1 µM, partner dose 0.2 µM) | 413%
26 | Cc1cc(N2CCOCC2)cc2[nH]c(-c3c(NC[C@@H](O)c4cccc(Cl)c4)cc[nH]c3=O)nc12 + Cc1cc([N+](=O)[O-])ccc1NS(=O)(=O)c1cc(Cl)ccc1Cl [FH535] (first compound 0.2 µM, partner dose 1 µM) | 223%
27 | C=CCn1c(=O)c2cnc(Nc3ccc(N4CCN(C)CC4)cc3)nc2n1-c1cccc(C(C)(C)O)n1 + O=C1NC(=O)/C(=C/c2ccc(-c3ccc(F)cc3O)o2)S1 [AS252424] (first compound 0.02 µM, partner dose 1 µM) | 50.9%
28 | Cc1ccc(NC(=O)c2cccc(N(C)C)c2)cc1NC(=O)c1ccc(O)cc1 + N#Cc1c(O)c2c(-c3ccc(-c4ccccc4O)cc3)csc2[nH]c1=O [A769662] (first compound 2 µM, partner dose 2 µM) | 122%
29 | Cn1cncc1[C@@](N)(c1ccc(Cl)cc1)c1ccc2c(c1)c(-c1cccc(Cl)c1)cc(=O)n2C [tipifarnib] + CCN(CC)CCCCNc1ncc2cc(-c3cc(OC)cc(OC)c3)c(NC(=O)NC(C)(C)C)nc2n1 [PD173074] (first compound 0.01 µM, partner dose 0.1 µM) | 85%
30 | O=C(CCCCCCC(=O)Nc1ccccc1)NO [vorinostat] + CCCCCCCCCCCC1=C(O)C(=O)C=C(O)C1=O [Embelin] (first compound 0.08 µM, partner dose 1.2 µM) | 140%
31 | Cn1nnc2c(C(N)=O)ncn2c1=O [temozolomide] + Cn1cc(/C=C2\C(=O)Nc3cccnc32)c2ccccc21 [GW441756] (first compound 2 µM, partner dose 0.4 µM) | 103%
32 | Nc1cccc2c1CN(C1CCC(=O)NC1=O)C2=O (centres undefined) [lenalidomide] + COc1cc2ncnc(Nc3ccc(Oc4ccccc4)cc3)c2cc1OC [SrcI1] (first compound 1 µM, partner dose 2 µM) | 75.4%
33 | COc1cc(Nc2ncc(F)c(Nc3ccc4c(n3)NC(=O)C(C)(C)O4)n2)cc(OC)c1OC [Tamatinib] + CCc1ccc(CCOc2ccc(CC3SC(=O)NC3=O)cc2)nc1 [pioglitazone] (first compound 0.4 µM, partner dose 2 µM) | 351%
34 | Cc1nc(Nc2ncc(C(=O)Nc3c(C)cccc3Cl)s2)cc(N2CCN(CCO)CC2)n1 [dasatanib] + COc1cc(N2CCC(N3CCN(C)CC3)CC2)ccc1Nc1ncc(Cl)c(Nc2ccccc2S(=O)(=O)C(C)C)n1 [NVP-TAE684] (first compound 0.004 µM, partner dose 0.08 µM) | 114%

Another view of some results above:
Row	Structure (SMILES)	cleaved PARP positive nuclei fraction
22	OCCn1cc(-c2cnc3nnn(Cc4ccc5ncccc5c4)c3n2)cn1 + O=C(O)C(=O)Nc1sc2c(c1C(=O)O)CCNC2 [TCS401] (first compound 1 µM, partner dose 1.66667 µM)	40.2%
26	Cc1cc(N2CCOCC2)cc2[nH]c(-c3c(NC[C@@H](O)c4cccc(Cl)c4)cc[nH]c3=O)nc12 + Cc1cc([N+](=O)[O-])ccc1NS(=O)(=O)c1cc(Cl)ccc1Cl [FH535] (first compound 0.2 µM, partner dose 1 µM)	223%
32	Nc1cccc2c1CN(C1CCC(=O)NC1=O)C2=O (centres undefined) [lenalidomide] + COc1cc2ncnc(Nc3ccc(Oc4ccccc4)cc3)c2cc1OC [SrcI1] (first compound 1 µM, partner dose 2 µM)	75.4%
